This is one part of the list.
Columns and labels:
Test in all cases: log2 fold change, soluble protein after heating vs DMSO (PISA); higher = thermal stabilisation; K562 cells, 10 uM, 30 min; active = over 0.2 and 3.5 SD of the protein, either way, in both replicates (recomputed)
saracatinib = compound: CN1CCN(CCOc2cc(OC3CCOCC3)c3c(Nc4c(Cl)ccc5c4OCO5)ncnc3c2)CC1 [saracatinib]
Procedure, shortened: (§1)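 Values are thermal stability changes relative to control samples and are taken from duplicates. They are stated as log2 fold changes. Before quantification by TMTpro 16plex LC-MS/MS with equalised channel sums, K562 cells at 2×10^6 cells/mL were treated with 10 μM compound for 30 min, heated in aliquots for 3 min across 48°C-58°C, pooled, extracted in PBS with 0.5% NP-40 at 4°C, and centrifuged at 21,000xg for 90 min to give the soluble supernatant.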

Chains of the proteins cited; added tags and fusions are not shown. Lines headed by an entry give the natural chain unless they say otherwise; changes in a name come on top.
UniProt Q96FN9: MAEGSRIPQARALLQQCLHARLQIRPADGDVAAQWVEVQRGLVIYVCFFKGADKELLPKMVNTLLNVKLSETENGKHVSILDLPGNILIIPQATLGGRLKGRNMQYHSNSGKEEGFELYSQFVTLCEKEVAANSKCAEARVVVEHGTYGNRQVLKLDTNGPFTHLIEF
UniProt Q9NXW2: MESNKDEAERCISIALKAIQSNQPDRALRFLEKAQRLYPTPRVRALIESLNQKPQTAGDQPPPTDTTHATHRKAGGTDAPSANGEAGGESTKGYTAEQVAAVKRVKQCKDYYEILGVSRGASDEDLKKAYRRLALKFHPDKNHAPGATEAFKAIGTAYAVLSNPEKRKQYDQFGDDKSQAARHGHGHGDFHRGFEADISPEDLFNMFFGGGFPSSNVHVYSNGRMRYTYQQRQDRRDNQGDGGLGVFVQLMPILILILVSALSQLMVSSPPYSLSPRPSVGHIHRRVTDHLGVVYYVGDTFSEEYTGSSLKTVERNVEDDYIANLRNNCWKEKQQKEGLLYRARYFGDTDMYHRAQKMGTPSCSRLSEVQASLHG
UniProt Q9UNI6, whole entry, looked up: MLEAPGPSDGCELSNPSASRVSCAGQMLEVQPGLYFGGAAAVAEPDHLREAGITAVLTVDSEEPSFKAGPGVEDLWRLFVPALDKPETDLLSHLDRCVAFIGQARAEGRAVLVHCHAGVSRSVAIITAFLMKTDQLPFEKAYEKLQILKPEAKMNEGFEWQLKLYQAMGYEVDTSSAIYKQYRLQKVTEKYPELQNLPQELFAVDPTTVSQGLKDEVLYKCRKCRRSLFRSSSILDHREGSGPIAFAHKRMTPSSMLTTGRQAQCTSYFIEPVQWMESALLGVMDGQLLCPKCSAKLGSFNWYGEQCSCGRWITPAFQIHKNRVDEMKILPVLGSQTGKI
UniProt O95620: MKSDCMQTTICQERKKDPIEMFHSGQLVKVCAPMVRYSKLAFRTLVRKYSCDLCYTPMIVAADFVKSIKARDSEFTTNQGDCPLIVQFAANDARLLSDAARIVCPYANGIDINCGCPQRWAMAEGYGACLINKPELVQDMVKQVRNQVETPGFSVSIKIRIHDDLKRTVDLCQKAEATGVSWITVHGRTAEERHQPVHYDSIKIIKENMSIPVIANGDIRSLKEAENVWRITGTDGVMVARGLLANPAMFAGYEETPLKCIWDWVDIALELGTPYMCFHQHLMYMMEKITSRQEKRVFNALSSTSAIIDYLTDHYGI
UniProt Q8NBA8: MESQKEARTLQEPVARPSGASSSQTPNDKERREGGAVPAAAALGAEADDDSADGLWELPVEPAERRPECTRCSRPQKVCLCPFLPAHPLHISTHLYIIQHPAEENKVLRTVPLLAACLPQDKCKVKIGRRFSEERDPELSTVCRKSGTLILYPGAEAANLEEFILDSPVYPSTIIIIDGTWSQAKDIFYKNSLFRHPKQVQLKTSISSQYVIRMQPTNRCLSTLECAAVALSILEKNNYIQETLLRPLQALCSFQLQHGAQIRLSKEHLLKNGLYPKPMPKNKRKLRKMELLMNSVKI
UniProt Q15125: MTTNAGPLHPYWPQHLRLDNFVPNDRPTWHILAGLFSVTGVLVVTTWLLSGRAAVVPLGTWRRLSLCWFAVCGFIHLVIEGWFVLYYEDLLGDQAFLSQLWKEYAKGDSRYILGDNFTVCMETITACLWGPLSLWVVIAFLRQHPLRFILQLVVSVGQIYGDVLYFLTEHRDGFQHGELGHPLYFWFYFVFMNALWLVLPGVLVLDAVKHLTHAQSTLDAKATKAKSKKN
UniProt Q9NX74: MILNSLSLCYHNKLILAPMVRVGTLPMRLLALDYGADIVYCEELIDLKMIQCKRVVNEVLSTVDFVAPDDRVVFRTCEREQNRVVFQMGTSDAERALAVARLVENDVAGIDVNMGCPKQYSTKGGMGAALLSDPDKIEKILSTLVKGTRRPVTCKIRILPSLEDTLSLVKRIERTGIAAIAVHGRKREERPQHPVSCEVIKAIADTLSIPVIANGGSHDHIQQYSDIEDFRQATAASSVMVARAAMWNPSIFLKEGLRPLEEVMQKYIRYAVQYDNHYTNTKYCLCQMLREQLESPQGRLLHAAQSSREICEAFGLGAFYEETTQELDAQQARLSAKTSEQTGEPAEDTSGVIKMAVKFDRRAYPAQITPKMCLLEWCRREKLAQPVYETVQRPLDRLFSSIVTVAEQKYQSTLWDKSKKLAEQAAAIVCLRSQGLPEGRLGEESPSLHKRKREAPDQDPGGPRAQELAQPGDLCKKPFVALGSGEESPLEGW
UniProt Q9BU89: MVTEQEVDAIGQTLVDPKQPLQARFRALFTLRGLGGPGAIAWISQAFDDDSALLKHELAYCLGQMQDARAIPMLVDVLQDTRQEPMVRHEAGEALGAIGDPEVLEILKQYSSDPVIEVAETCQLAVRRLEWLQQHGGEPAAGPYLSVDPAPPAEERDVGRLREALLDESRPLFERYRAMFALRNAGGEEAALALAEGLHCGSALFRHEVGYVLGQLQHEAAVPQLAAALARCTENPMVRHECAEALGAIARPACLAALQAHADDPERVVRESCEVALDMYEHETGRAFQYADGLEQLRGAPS
UniProt Q9NYP3: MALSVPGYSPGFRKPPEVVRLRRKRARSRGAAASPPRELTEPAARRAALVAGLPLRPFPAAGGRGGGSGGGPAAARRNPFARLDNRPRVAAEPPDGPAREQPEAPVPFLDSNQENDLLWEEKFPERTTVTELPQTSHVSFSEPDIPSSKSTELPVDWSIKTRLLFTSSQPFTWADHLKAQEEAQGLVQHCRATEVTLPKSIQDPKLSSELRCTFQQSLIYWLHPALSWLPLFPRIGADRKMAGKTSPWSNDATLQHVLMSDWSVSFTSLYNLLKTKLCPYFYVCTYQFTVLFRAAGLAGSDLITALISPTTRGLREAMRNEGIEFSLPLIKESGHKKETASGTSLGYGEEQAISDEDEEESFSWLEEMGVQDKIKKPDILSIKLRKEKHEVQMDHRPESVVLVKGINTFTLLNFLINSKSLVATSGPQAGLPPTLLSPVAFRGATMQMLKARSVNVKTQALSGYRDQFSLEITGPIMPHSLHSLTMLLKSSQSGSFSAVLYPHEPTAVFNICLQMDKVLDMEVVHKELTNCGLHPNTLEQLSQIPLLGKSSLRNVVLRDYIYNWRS
UniProt O95905: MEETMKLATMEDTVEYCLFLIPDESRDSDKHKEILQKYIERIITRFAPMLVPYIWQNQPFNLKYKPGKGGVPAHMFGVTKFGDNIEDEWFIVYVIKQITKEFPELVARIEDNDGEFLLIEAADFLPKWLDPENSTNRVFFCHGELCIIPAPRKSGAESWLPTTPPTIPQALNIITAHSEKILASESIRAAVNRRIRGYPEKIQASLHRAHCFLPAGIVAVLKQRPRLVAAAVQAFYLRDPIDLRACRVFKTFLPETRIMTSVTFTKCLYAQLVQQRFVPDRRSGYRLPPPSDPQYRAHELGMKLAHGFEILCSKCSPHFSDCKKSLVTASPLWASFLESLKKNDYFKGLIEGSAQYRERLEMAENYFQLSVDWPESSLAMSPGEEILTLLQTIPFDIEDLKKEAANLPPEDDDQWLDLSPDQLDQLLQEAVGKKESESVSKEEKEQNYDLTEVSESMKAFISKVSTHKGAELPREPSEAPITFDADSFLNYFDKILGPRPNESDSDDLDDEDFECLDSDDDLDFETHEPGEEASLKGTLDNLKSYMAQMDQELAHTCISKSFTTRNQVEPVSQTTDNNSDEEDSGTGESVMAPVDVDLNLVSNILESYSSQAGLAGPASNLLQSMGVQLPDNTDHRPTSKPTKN
UniProt Q8N5C7: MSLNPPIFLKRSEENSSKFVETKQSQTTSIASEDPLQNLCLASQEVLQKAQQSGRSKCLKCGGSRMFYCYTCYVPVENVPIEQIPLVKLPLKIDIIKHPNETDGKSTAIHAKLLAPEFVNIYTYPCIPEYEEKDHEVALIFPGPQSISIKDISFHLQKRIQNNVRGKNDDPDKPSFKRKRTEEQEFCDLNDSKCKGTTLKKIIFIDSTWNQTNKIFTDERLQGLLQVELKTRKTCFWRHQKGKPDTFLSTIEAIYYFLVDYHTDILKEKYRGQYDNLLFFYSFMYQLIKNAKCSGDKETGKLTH
UniProt Q96N67: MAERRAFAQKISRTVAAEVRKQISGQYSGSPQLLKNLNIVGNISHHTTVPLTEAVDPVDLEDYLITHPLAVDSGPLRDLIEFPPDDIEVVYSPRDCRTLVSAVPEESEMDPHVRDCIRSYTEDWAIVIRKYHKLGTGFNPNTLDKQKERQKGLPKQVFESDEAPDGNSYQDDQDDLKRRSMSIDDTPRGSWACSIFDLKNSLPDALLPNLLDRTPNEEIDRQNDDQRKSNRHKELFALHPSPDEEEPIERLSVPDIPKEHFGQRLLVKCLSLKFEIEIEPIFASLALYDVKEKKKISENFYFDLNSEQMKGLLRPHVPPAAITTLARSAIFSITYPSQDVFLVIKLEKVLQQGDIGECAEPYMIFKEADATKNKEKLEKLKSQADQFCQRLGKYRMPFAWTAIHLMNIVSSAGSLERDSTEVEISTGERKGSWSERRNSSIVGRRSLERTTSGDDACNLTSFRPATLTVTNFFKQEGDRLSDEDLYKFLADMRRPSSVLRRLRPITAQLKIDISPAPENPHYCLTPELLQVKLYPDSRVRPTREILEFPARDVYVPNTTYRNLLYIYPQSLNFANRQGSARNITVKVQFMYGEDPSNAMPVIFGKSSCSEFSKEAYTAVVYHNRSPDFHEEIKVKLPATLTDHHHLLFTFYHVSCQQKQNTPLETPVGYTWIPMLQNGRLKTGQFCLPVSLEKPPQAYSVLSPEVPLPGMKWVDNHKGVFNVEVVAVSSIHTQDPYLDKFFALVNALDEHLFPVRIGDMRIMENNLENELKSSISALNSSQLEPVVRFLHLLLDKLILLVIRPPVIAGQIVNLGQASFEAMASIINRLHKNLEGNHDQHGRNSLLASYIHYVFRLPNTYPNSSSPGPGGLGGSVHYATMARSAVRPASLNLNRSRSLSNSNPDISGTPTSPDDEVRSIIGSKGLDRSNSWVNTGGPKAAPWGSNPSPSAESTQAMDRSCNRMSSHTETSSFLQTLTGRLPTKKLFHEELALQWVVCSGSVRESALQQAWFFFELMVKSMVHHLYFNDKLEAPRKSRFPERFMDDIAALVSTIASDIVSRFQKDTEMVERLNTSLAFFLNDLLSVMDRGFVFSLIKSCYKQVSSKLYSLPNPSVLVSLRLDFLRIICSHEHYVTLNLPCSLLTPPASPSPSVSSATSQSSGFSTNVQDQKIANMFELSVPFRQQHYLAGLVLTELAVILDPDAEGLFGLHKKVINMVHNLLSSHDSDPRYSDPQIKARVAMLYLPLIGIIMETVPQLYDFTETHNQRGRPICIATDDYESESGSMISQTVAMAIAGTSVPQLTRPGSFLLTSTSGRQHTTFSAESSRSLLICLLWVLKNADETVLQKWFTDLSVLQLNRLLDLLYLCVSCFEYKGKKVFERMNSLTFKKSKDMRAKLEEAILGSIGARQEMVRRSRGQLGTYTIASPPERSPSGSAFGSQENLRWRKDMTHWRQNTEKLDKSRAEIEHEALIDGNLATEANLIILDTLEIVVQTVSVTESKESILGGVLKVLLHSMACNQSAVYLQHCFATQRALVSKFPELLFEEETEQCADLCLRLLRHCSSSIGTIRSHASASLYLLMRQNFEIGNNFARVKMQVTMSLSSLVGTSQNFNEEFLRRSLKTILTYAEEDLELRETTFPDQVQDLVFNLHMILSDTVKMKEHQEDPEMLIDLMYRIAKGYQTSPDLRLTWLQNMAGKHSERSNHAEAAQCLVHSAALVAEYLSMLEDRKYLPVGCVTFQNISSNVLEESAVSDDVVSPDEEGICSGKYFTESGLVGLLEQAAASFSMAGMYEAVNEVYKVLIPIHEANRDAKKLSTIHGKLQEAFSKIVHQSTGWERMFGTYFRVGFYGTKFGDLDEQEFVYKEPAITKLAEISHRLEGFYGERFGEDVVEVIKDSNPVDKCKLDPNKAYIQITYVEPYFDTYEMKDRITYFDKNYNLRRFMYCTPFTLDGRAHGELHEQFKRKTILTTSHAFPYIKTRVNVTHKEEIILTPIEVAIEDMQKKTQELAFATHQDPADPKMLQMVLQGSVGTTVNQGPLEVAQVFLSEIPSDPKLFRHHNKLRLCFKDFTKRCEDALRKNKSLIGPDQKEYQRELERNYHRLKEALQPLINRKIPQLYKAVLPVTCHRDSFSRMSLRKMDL

sotrastaurin = compound: CN1CCN(c2nc(C3=C(c4c[nH]c5ccccc45)C(=O)NC3=O)c3ccccc3n2)CC1 [sotrastaurin]
Procedure, shortened: as §1

alvocidib = compound: CN1CC[C@H](c2c(O)cc(O)c3c(=O)cc(-c4ccccc4Cl)oc23)[C@H](O)C1 [alvocidib]
Procedure, shortened: as §1

Tubastatin A = compound: CN1CCc2c(c3ccccc3n2Cc2ccc(C(=O)NO)cc2)C1 [Tubastatin A]
Procedure, shortened: as §1

[1] = compound: CNC(=O)C1=CC=CC=C1NC2=NC(=NC=C2Cl)NC3=C(C=C(C=C3)N4CCOCC4)OC
Procedure, shortened: as §1

defactinib = compound: CNC(=O)c1ccc(Nc2ncc(C(F)(F)F)c(NCc3nccnc3N(C)S(C)(=O)=O)n2)cc1 [defactinib]
Procedure, shortened: as §1

[2] = compound: CNc1nc(-c2ccc3c(N)n[nH]c3c2)cc(N2C[C@@H](C(=O)NC3CCCCC3)CC[C@H]2C)n1
Procedure, shortened: as §1

[3] = compound: COC(=O)[C@H](CCSC)NC(=O)C1=C(C=C(C=C1)NC[C@H](CS)N)C2=CC=CC=C2
Procedure, shortened: as §1

[4] = compound: COC1=CC=C(C=C1)CN2C=CC3=C2C=C(C=C3)C(=O)NO
Procedure, shortened: as §1

filanesib = compound: CON(C)C(=O)N1N=C(c2cc(F)ccc2F)S[C@@]1(CCCN)c1ccccc1 [filanesib]
Procedure, shortened: as §1

zotarolimus = compound: CO[C@H]1C[C@@H]2CC[C@@H](C)[C@@](O)(O2)C(=O)C(=O)N2CCCC[C@H]2C(=O)O[C@H]([C@H](C)C[C@@H]2CC[C@H](n3cnnn3)[C@H](OC)C2)CC(=O)[C@H](C)/C=C(\C)[C@@H](O)[C@@H](OC)C(=O)[C@H](C)C[C@H](C)/C=C/C=C/C=C/1C [zotarolimus]
Procedure, shortened: as §1

idasanutlin = compound: COc1cc(C(=O)O)ccc1NC(=O)[C@@H]1N[C@@H](CC(C)(C)C)[C@](C#N)(c2ccc(Cl)cc2F)[C@H]1c1cccc(Cl)c1F [idasanutlin]
Procedure, shortened: as §1

[5] = compound: COc1cc2nc(-c3cc(F)ccc3O)nc(N[C@@H]3CNC[C@H]3C(C)(C)O)c2cc1OC
Procedure, shortened: as §1

gefitinib = compound: COc1cc2ncnc(Nc3ccc(F)c(Cl)c3)c2cc1OCCCN1CCOCC1 [gefitinib]
Procedure, shortened: as §1

lapatinib = compound: CS(=O)(=O)CCNCc1ccc(-c2ccc3ncnc(Nc4ccc(OCc5cccc(F)c5)c(Cl)c4)c3c2)o1 [lapatinib]
Procedure, shortened: as §1

pictilisib = compound: CS(=O)(=O)N1CCN(Cc2cc3nc(-c4cccc5[nH]ncc45)nc(N4CCOCC4)c3s2)CC1 [pictilisib]
Procedure, shortened: as §1

rucaparib = compound: CNCc1ccc(-c2[nH]c3cc(F)cc4c3c2CCNC4=O)cc1 [rucaparib]
Procedure, shortened: as §1

encorafenib = compound: COC(=O)N[C@@H](C)CNc1nccc(-c2cn(C(C)C)nc2-c2cc(Cl)cc(NS(C)(=O)=O)c2F)n1 [encorafenib]
Procedure, shortened: as §1

alisertib = compound: COc1cc(Nc2ncc3c(n2)-c2ccc(Cl)cc2C(c2c(F)cccc2OC)=NC3)ccc1C(=O)O [alisertib]
Procedure, shortened: as §1

[6] = compound: COc1cccc2cc(-c3nc([C@H]4CC[C@H](C(=O)O)CC4)n4ncnc(N)c34)[nH]c12
Procedure, shortened: as §1

Measured: log2 fold change

DTD2 (UniProt Q96FN9)
inactive: saracatinib 0.026 | sotrastaurin -0.01 | alvocidib -0.078 | Tubastatin A -0.003 | [1] -0.028 | defactinib -0.033 | [2] 0.091 | [3] -0.021 | [4] 0.038 | filanesib 0.027 | zotarolimus 0.153 | idasanutlin -0.018 | [5] -0.207 | gefitinib -0.155 | lapatinib -0.067 | pictilisib -0.093

DNAJB12 (UniProt Q9NXW2)
inactive: saracatinib 0.022 | sotrastaurin 0.068 | Tubastatin A -0.006 | [1] 0.024 | defactinib -0.03 | rucaparib 0.079 | [2] -0.011 | encorafenib -0.018 | [3] -0.021 | [4] 0.023 | filanesib -0.024 | zotarolimus -0.06 | idasanutlin -0.006 | alisertib -0.081 | [5] 0.023 | gefitinib 0.029 | [6] 0.006 | lapatinib -0.033 | pictilisib -0.051

DUSP12 (UniProt Q9UNI6)
inactive: saracatinib 0.025 | sotrastaurin 0.018 | alvocidib -0.07 | Tubastatin A 0.006 | [1] 0.035 | defactinib -0.056 | rucaparib -0.111 | [2] -0.025 | encorafenib 0.016 | [3] -0.007 | [4] 0.068 | filanesib -0.05 | zotarolimus 0.043 | idasanutlin -0.036 | alisertib -0.033 | [5] -0.07 | gefitinib 0.067 | [6] 0.042 | lapatinib 0.013 | pictilisib 0.191

DUS4L (UniProt O95620)
inactive: saracatinib 0.08 | sotrastaurin 0.099 | alvocidib -0.026 | Tubastatin A -0.034 | [1] -0.072 | defactinib -0.015 | rucaparib -0.024 | [2] 0 | encorafenib 0.025 | [3] 0.014 | [4] -0.025 | filanesib -0.112 | zotarolimus 0.053 | idasanutlin 0.002 | alisertib -0.017 | [5] 0.007 | gefitinib 0.06 | [6] 0.047 | lapatinib 0.026 | pictilisib 0.011

DNPEP (UniProt B9ZVU2)
inactive: saracatinib -0.008 | sotrastaurin 0.026 | alvocidib -0.207 | Tubastatin A -0.009 | [1] -0.024 | defactinib -0.023 | rucaparib -0.048 | [2] -0.035 | encorafenib -0.031 | [3] -0.068 | [4] 0.145 | filanesib -0.062 | zotarolimus 0.183 | idasanutlin -0.039 | alisertib -0.132 | [5] -0.124 | [6] 0.084 | lapatinib 0.048 | pictilisib -0.152

2 records picked at random from the list so far:
DTD2 (UniProt Q96FN9)
inactive: saracatinib 0.026 | sotrastaurin -0.01 | alvocidib -0.078 | Tubastatin A -0.003 | [1] -0.028 | defactinib -0.033 | [2] 0.091 | [3] -0.021 | [4] 0.038 | filanesib 0.027 | zotarolimus 0.153 | idasanutlin -0.018 | [5] -0.207 | gefitinib -0.155 | lapatinib -0.067 | pictilisib -0.093

DNPEP (UniProt B9ZVU2)
inactive: saracatinib -0.008 | sotrastaurin 0.026 | alvocidib -0.207 | Tubastatin A -0.009 | [1] -0.024 | defactinib -0.023 | rucaparib -0.048 | [2] -0.035 | encorafenib -0.031 | [3] -0.068 | [4] 0.145 | filanesib -0.062 | zotarolimus 0.183 | idasanutlin -0.039 | alisertib -0.132 | [5] -0.124 | [6] 0.084 | lapatinib 0.048 | pictilisib -0.152

Next entries

DTWD2 (UniProt Q8NBA8)
inactive: saracatinib -0.032 | sotrastaurin -0.228 | Tubastatin A -0.029 | [1] 0.111 | defactinib -0.022 | rucaparib 0.05 | [2] 0.04 | encorafenib 0.002 | [3] -0.032 | [4] -0.229 | filanesib 0.307 | zotarolimus -0.036 | idasanutlin -0.073 | alisertib 0.069 | [5] -0.18 | gefitinib -0.159 | [6] 0.002 | lapatinib 0.151 | pictilisib -0.042

EDC4 (UniProt Q6P2E9)
inactive: saracatinib -0.023 | sotrastaurin -0.109 | Tubastatin A 0.016 | [1] -0.163 | defactinib -0.148 | rucaparib -0.012 | [2] -0.099 | encorafenib 0.113 | [3] 0.005 | [4] 0.018 | filanesib 0.106 | zotarolimus 0.001 | idasanutlin 0.044 | alisertib -0.028 | [5] 0.062 | gefitinib -0.004 | [6] 0 | lapatinib 0.007 | pictilisib 0.006

EBP (UniProt Q15125)
inactive: saracatinib 0.054 | sotrastaurin -0.002 | alvocidib -0.229 | Tubastatin A -0.056 | [1] -0.066 | defactinib -0.075 | rucaparib 0.015 | [2] -0.096 | encorafenib -0.018 | [3] -0.01 | [4] -0.068 | filanesib -0.079 | zotarolimus -0.053 | idasanutlin 0.048 | alisertib 0.047 | [5] -0.01 | gefitinib -0.016 | [6] 0.047 | lapatinib -0.111 | pictilisib 0.049

DUS2 (UniProt Q9NX74)
inactive: saracatinib 0.112 | sotrastaurin -0.098 | Tubastatin A 0.041 | [1] -0.048 | defactinib -0.093 | rucaparib 0.042 | [2] -0.113 | encorafenib 0.09 | [3] -0.02 | [4] -0.02 | filanesib -0.014 | zotarolimus -0.041 | idasanutlin -0.004 | alisertib -0.075 | [5] 0.059 | gefitinib 0.04 | [6] -0.11 | lapatinib 0.043 | pictilisib -0.128

DOHH (UniProt Q9BU89)
inactive: saracatinib -0.035 | sotrastaurin 0.196 | Tubastatin A -0.121 | [1] -0.076 | defactinib -0.152 | rucaparib -0.002 | [2] -0.064 | encorafenib -0.074 | [3] 0.037 | [4] -0.4 | filanesib -0.151 | zotarolimus 0.022 | idasanutlin -0.038 | alisertib -0.062 | [5] -0.041 | gefitinib 0.201 | [6] 0.084 | lapatinib -0.006 | pictilisib -0.171

DONSON (UniProt Q9NYP3)
inactive: saracatinib -0.164 | sotrastaurin -0.113 | alvocidib 0.008 | Tubastatin A 0.166 | defactinib 0.076 | rucaparib 0.308 | [2] 0.094 | encorafenib 0.145 | [3] -0.02 | [4] 0.119 | filanesib 0.339 | zotarolimus 0.036 | idasanutlin 0.014 | gefitinib -0.309 | pictilisib 0.249

ECD isoform 3 (UniProt O95905)
inactive: saracatinib -0.075 | sotrastaurin -0.091 | alvocidib 0.097 | Tubastatin A -0.01 | [1] -0.039 | defactinib -0.07 | rucaparib -0.016 | [2] 0.024 | encorafenib 0.044 | [3] 0.017 | [4] -0.032 | filanesib 0.007 | zotarolimus -0.121 | alisertib 0.025 | [5] 0.138 | gefitinib 0.045 | [6] -0.06 | lapatinib -0.007 | pictilisib 0.003

DTWD1 (UniProt Q8N5C7)
inactive: saracatinib 0.007 | sotrastaurin -0.02 | Tubastatin A -0.014 | [1] 0.007 | defactinib -0.03 | rucaparib 0.011 | [2] 0.152 | encorafenib 0.051 | [3] -0.143 | [4] -0.227 | filanesib -0.081 | zotarolimus 0.031 | idasanutlin -0.115 | alisertib -0.057 | [5] 0.078 | gefitinib 0.069 | [6] 0.031 | lapatinib 0.044 | pictilisib 0.124

DOCK7 (UniProt Q96N67)
inactive: saracatinib 0.027 | sotrastaurin 0.016 | alvocidib -0.055 | Tubastatin A -0.023 | [1] -0.141 | defactinib -0.063 | rucaparib -0.034 | [2] -0.021 | encorafenib 0.022 | [3] 0.004 | filanesib -0.134 | zotarolimus -0.029 | idasanutlin -0.058 | alisertib 0.128 | [5] 0.051 | gefitinib -0.036 | [6] 0.042 | lapatinib -0.05 | pictilisib 0.017

— the supplement of paper PMC10849652
